{"source": "PubChem BioAssay AID504834", "about": "(National Center for Advancing Translational Sciences (NCATS), 2011)", "note": "Screen size: about 320,000 compounds; about 22,000 (6.9%) were called active. Inconclusive results, whose numbers are uncertain, are shown with a selection of clear calls. Calls come from the whole dose curve; as a rule, active = well fitted inhibition curve with a large enough effect; inconclusive = small, poorly fitted or top-dose-only effect, or another doubt; inactive = no such curve, though single readings can be large or run the other way. Potencies beside an inconclusive call are fits to weak or partial responses and may not hold up. % is set by controls: 0 for no effect and ±100 for the full control effect; potency is the fitted concentration of half-maximal effect.", "data": [{"assay": "Primary qHTS for delayed death inhibitors of the malarial parasite plastid, 96 hour incubation", "conditions": "P. falciparum luciferase reporter growth; series mostly up to 28.7 µM; activity change, negative = inhibition: at the top concentration", "outline": "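Two-generation exposure (96 h) targets delayed-death phenotype. Reporter parasites carrying integrated firefly luciferase, in red cells at 2% hematocrit and 0.05% parasitemia final, kept at 37 C, 5% CO2; luminescence loss indicates inhibition.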", "values": [{"smiles": "COc1ccccc1Oc1ccc(S(=O)(=O)N2CCN(C)CC2)cc1", "activity change, negative = inhibition": "inactive: 19.2%"}, {"smiles": "COc1ccccc1N(CN1CCCC1=O)C(=O)c1c(F)cccc1F", "Potency": "inconclusive: 14.7 µM [inhibitor, single point]"}, {"smiles": "O=C(N/N=C/c1ccc2c(c1)OCO2)C1CC1", "activity change, negative = inhibition": "inactive: 96.4%"}, {"smiles": "O=S1(=O)N=C(N2CCOCC2)c2ccccc21", "Potency": "inconclusive: 18.5 µM [inhibitor, single point]"}, {"smiles": "COc1ccc(/C=C\\C(=O)Oc2cccc(/C=N/NC(=O)Cc3ccc(OC)c(OC)c3)c2)cc1", "Potency": "inconclusive: 2.33 µM [inhibitor, full curve, poor fit]"}, {"smiles": "N#Cc1ccc(C(=O)OCc2cccc(S(=O)(=O)N3CCOCC3)c2)cc1", "Potency": "inconclusive: 2.08 µM [inhibitor, single point]"}, {"smiles": "O=c1cc(-c2ccccc2)cc(-c2ccccc2)n1CCO", "activity change, negative = inhibition": "inactive: -21.6%"}, {"smiles": "NS(=O)(=O)c1ccc(NC(=O)/C=C/c2ccccc2[N+](=O)[O-])cc1", "activity change, negative = inhibition": "inactive: -18.5%"}, {"smiles": "Cc1ccc(S(=O)(=O)N2CCCCC2)cc1NC(=O)c1cncc(Br)c1", "Potency": "inconclusive: 18.5 µM [inhibitor, single point]"}, {"smiles": "Cc1cc(C(=O)COC(=O)c2ccc(O)cc2)c(C)n1CC1COc2ccccc2O1", "note": "(configuration not stated)", "Potency": "active: 13.1 µM"}, {"smiles": "CCOC(=O)c1c(CN2CCN(C)CC2)oc2ccc(O)cc12", "Potency": "inconclusive: 18.5 µM [inhibitor, single point]"}, {"smiles": "CCC(C)c1ccc(S(=O)(=O)N2CCN(S(=O)(=O)c3ccc(NC(C)=O)cc3)CC2)cc1", "note": "(configuration not stated)", "Potency": "inconclusive: 3.29 µM [inhibitor, full curve]"}, {"smiles": "CCc1[nH]nc2c1C(Cc1ccccc1)C(C#N)=C(N)O2", "note": "(configuration not stated)", "activity change, negative = inhibition": "inactive: -13.1%"}, {"smiles": "CCOc1ccc(CCNC(=O)COc2cccc(-n3cnnn3)c2)cc1OCC", "Potency": "inconclusive: 18.5 µM [inhibitor, single point]"}, {"smiles": "COc1ccc(OC)c(NC(=O)CSCc2cnn(-c3ccccc3)c2-n2cccc2)c1", "Potency": "inconclusive: 0.928 µM [inhibitor, partial curve, poor fit]"}, {"smiles": "COc1ccc(Cc2n[nH]c(=S)o2)cc1", "Potency": "inconclusive: 18.5 µM [inhibitor, single point]"}, {"smiles": "Cn1cc(C(=O)N2CCc3ccccc3C2)c(=O)c2cc(S(=O)(=O)N3CCCCC3)ccc21", "Potency": "active: 3.7 µM"}, {"smiles": "Cn1c(O)c(N=NC(N)=S)c2ccccc21", "Potency": "active: 12 µM"}, {"smiles": "Cc1csc(N/N=C/c2ccccn2)n1", "Potency": "inconclusive: 13.1 µM [inhibitor, single point]"}, {"smiles": "COC(=O)c1cc(S(=O)(=O)NCC2CCN(Cc3cccc(F)c3)CC2)c[nH]1", "Potency": "inconclusive: 18.5 µM [inhibitor, single point]"}, {"smiles": "O=C(CCS(=O)(=O)c1ccc(F)cc1)Nc1nnc(-c2cccs2)o1", "activity change, negative = inhibition": "inactive: 1.47%"}, {"smiles": "CCCN(C(=O)Cc1c(C(=O)O)n(C)c2ccccc12)c1cccc(C)c1", "activity change, negative = inhibition": "inactive: -9.41%"}, {"smiles": "CC(C)[C@H](NC(=O)C1CCN(S(=O)(=O)c2ccc(F)cc2)CC1)C(=O)NCc1ccncc1", "Potency": "inconclusive: 13.1 µM [inhibitor, single point]"}, {"smiles": "Cc1ccc(NC(=O)C2CCN(S(=O)(=O)c3ccc4c(c3)OCCCO4)CC2)nc1", "Potency": "inconclusive: 11.7 µM [inhibitor, partial curve]"}, {"smiles": "O=C1c2ccccc2C(=O)C1c1ccc(O)cc1", "Potency": "inconclusive: 1.65 µM [inhibitor, full curve, poor fit]"}, {"smiles": "CN1CCN(c2ccc(CNS(=O)(=O)Cc3ccc(Cl)cc3)cc2)CC1", "Potency": "inconclusive: 18.5 µM [inhibitor, single point]"}, {"smiles": "N#C/C(=C\\c1ccc(OCc2ccccc2)cc1)C(N)=O", "activity change, negative = inhibition": "inactive: 6.17%"}, {"smiles": "CC(C)(C)n1nc2c(c1NC(=O)C1CC(=O)N(c3ccc(Cl)cc3)C1)CS(=O)(=O)C2", "note": "(configuration not stated)", "Potency": "inconclusive: 14.7 µM [inhibitor, single point]"}, {"smiles": "CN(C)c1ccc(C2Nc3cccc4cccc(c34)N2)cc1", "Potency": "active: 3.7 µM"}, {"smiles": "COc1ccc(CNc2c(C(=O)O)cnc3c2cnn3C)cc1", "Potency": "inconclusive: 18.5 µM [inhibitor, single point]"}, {"smiles": "Nc1ccc(-c2cc(-c3cccc(N)c3)nc(-c3ccccc3)n2)cc1", "Potency": "active: 2.08 µM"}, {"smiles": "O=C(c1ccccc1F)N1CCN(c2cccc(C(F)(F)F)c2)CC1", "Potency": "inconclusive: 18.5 µM [inhibitor, single point]"}, {"smiles": "CC(=O)c1cccc(NC(=O)Nc2ccccc2)c1", "activity change, negative = inhibition": "inactive: -2.4%"}, {"smiles": "O=S(=O)(c1ccccc1)N1CCCC1c1cccs1", "note": "(configuration not stated)", "Potency": "inconclusive: 4.15 µM [inhibitor, single point]"}, {"smiles": "O=C(C[n+]1cc(-c2ccccc2)n2c1CCCCC2)c1ccc(Cl)cc1", "Potency": "active: 0.657 µM"}, {"smiles": "Cc1sc(NC(=O)c2ccco2)c(C(c2ccncc2)N2CCOCC2)c1C", "note": "(configuration not stated)", "Potency": "inconclusive: 18.5 µM [inhibitor, single point]"}, {"smiles": "c1ccc(-n2nnnc2SCc2cn3cccnc3n2)cc1", "Potency": "inconclusive: 10.4 µM [inhibitor, single point]"}, {"smiles": "Cc1cc(C)cc(-n2c(SCC(=O)Nc3cccc(S(=O)(=O)NC4=NCCCCC4)c3)nc3ccccc3c2=O)c1", "Potency": "inconclusive: 10.4 µM [inhibitor, single point]"}, {"smiles": "COc1ccc(NC(=S)Nc2cnc3ccccc3c2)c(OC)c1", "Potency": "inconclusive: 11.7 µM [inhibitor, single point]"}, {"smiles": "O=C(Nc1ccccc1F)c1ccc(Br)o1", "activity change, negative = inhibition": "inactive: 13.6%"}, {"smiles": "O=C(CCc1ccccc1)Nc1cc2c3c(c1)CC(=O)N3CCC2", "activity change, negative = inhibition": "inactive: 2.3%"}, {"smiles": "Nc1nnc(SCc2nnc(-c3ccccc3)o2)s1", "Potency": "inconclusive: 9.28 µM [inhibitor, single point]"}, {"smiles": "O=C(NCCC1=CCCCC1)c1c(O)nc2ccccn2c1=O", "activity change, negative = inhibition": "inactive: 32.6%"}, {"smiles": "Nc1ccccc1SCCS(=O)(=O)c1ccc(Cl)cc1", "activity change, negative = inhibition": "inactive: -0.151%"}, {"smiles": "O=[N+]([O-])c1cccc(S(=O)(=O)NCC2CC3CCC2C3)c1", "note": "(configuration not stated)", "Potency": "inconclusive: 18.5 µM [inhibitor, single point]"}, {"smiles": "Cc1cccc(NC(=S)N=Nc2c(O)n(CN3CCOCC3)c3ccccc23)c1C", "activity change, negative = inhibition": "inactive: 0.713%"}, {"smiles": "CCCCN(CC)CCNC(=O)c1cn(-c2ccc(Cl)cc2)c(=O)c2ccccc12", "Potency": "inconclusive: 0.415 µM [inhibitor, partial curve, poor fit]"}, {"smiles": "C[C@@H](C(=O)Nc1ccc2ccccc2c1)[C@H]1C[C@]1(C)[C@H](NC(=O)OCc1ccccc1)c1ccccc1", "Potency": "active: 10.4 µM"}, {"smiles": "Cc1cccc(CN2CCC(C(=O)Nc3ccc(Oc4cccnc4)cc3)CC2)c1", "activity change, negative = inhibition": "inactive: 13.9%"}, {"smiles": "C=CCc1cc(Cl)ccc1OCCn1ccnc1", "Potency": "inconclusive: 11.7 µM [inhibitor, single point]"}, {"smiles": "O=C(Cc1ccc(S(=O)(=O)N2CCCC2)s1)N1CCN(c2ccccc2)CC1", "Potency": "inconclusive: 11.7 µM [inhibitor, partial curve]"}, {"smiles": "COc1ccc(Cl)cc1NC(=O)CSc1nc(N2CCOCC2)nc(N2CCOCC2)n1", "Potency": "inconclusive: 8.28 µM [inhibitor, partial curve, poor fit]"}, {"smiles": "OCC1CCCN1C(=S)Nc1ccccc1", "note": "(configuration not stated)", "Potency": "inconclusive: 11.7 µM [inhibitor, partial curve, poor fit]"}, {"smiles": "O=C(COc1ccc2ccc(=O)oc2c1)NCCc1c[nH]c2ccc(F)cc12", "Potency": "inconclusive: 18.5 µM [inhibitor, single point]"}, {"smiles": "CC(C)c1nnc(NC(=O)CC(C)c2ccccc2)s1", "note": "(configuration not stated)", "activity change, negative = inhibition": "inactive: -19.8%"}, {"smiles": "Cc1cc(-n2cnnn2)cc(C)c1S(=O)(=O)N(C)c1ccccc1", "activity change, negative = inhibition": "inactive: -22.2%"}, {"smiles": "Cc1ccc(S(=O)(=O)N2CCN(CC(=O)N/N=C/c3cc([N+](=O)[O-])ccc3Cl)CC2)cc1", "Potency": "inconclusive: 11.7 µM [inhibitor, single point]"}, {"smiles": "CCN(C(=O)COC(=O)c1cnc(C)cn1)C1CCCCC1", "Potency": "inconclusive: 0.0828 µM [inhibitor, full curve, poor fit]"}, {"smiles": "COc1cccc(C=O)c1OCCN1C(=O)c2ccccc2C1=O", "Potency": "inconclusive: 4.65 µM [inhibitor, partial curve]"}, {"smiles": "Cc1ccc(/C=C/C(=O)c2nc3ccccc3[nH]2)cc1", "Potency": "inconclusive: 1.17 µM [inhibitor, partial curve, poor fit]"}, {"smiles": "Cc1cccc(N(Cc2cc3ccccc3[nH]c2=O)S(=O)(=O)c2ccccc2)c1", "Potency": "active: 10.4 µM"}, {"smiles": "COc1ccc(NC(=O)CSCC(=O)Nc2ccccc2C(=O)N2CCCCC2)cc1", "Potency": "inconclusive: 18.5 µM [inhibitor, single point]"}, {"smiles": "COc1ccc(Nc2nc(Cl)nc(NCc3ccco3)n2)cc1", "activity change, negative = inhibition": "inactive: 48.6%"}, {"smiles": "COc1ccc(NC(=S)N(CCCN2CCOCC2)Cc2ccco2)cc1", "activity change, negative = inhibition": "inactive: 21.3%"}, {"smiles": "C/C(CC(=O)Nc1ccc(N(C)C)cc1)=N\\NC(=O)c1ccc([N+](=O)[O-])cc1Cl", "activity change, negative = inhibition": "inactive: 5.83%"}, {"smiles": "O=C(/C=C/c1ccccc1Cl)c1ccccc(=O)c1O", "Potency": "active: 3.7 µM"}, {"smiles": "OC(CNCCC1C=Nc2ccccc21)Cn1c2ccc(Cl)cc2c2cc(Cl)ccc21", "note": "(configuration not stated)", "Potency": "inconclusive: 16.5 µM [inhibitor, partial curve, poor fit]"}, {"smiles": "Oc1ccc(C=Nc2ccccc2-c2nc3ccccc3[nH]2)cc1", "Potency": "inconclusive: 6.57 µM [inhibitor, single point]"}, {"smiles": "COc1ccc(C)cc1S(=O)(=O)Nc1cc2c3c(c1)C(C)C(=O)N3CCC2", "note": "(configuration not stated)", "Potency": "inconclusive: 20.8 µM [inhibitor, single point]"}, {"smiles": "C=CCN(CC=C)C(=O)c1ccc(OC2CCN(C(C)=O)CC2)c(OC)c1", "Potency": "active: 2.94 µM"}, {"smiles": "CCN(CC)S(=O)(=O)c1cccc(-c2cn3cccnc3n2)c1", "Potency": "active: 14.7 µM"}, {"smiles": "CCOCCn1ccc2c(OCC(=O)Nc3ccc(OC)cc3OC)cccc2c1=O", "Potency": "inconclusive: 2.08 µM [inhibitor, partial curve, poor fit]"}]}]}
